Source: PMC12552473
These are yes or no findings as the source states them, for the method shown. In cells and extracts the contact can be indirect. Some results given as binding are weak or reduced against the parent protein; the word gives no strength. For some assays here: Tags and fused reporters may be left off the sequences shown.

Chains of the proteins cited; added tags and fusions are not shown.
UniProt Q16665: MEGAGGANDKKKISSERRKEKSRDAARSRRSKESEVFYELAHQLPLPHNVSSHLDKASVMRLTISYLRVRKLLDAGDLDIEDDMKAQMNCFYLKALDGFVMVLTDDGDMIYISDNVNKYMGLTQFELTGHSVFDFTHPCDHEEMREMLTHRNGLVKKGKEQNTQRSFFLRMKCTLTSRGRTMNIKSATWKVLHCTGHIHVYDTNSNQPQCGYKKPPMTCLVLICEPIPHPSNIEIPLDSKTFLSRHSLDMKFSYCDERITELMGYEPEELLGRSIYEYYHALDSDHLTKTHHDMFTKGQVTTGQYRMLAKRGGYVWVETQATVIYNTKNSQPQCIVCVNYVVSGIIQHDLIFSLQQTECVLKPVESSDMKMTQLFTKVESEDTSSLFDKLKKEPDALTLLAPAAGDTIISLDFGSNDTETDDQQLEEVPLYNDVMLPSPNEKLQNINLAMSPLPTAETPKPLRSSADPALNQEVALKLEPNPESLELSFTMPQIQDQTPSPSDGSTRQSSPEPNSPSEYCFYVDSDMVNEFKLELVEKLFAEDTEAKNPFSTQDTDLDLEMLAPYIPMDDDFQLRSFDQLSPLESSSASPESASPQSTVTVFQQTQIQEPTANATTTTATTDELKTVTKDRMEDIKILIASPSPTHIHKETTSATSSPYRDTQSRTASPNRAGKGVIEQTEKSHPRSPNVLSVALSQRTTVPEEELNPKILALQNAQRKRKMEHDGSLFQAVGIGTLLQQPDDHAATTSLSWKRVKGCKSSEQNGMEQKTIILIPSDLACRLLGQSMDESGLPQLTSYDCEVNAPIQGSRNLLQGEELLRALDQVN

Assays:
[1] = target: T1, Ubiquitin-like PHD and RING finger domain-containing protein 1 (UHRF1), endogenous in SKOV3 cells (human (endogenous in SKOV3)) (UniProt Q96T88); experiment: co-IP; endogenous co-IP in SKOV3 cells; 1000 µg lysate protein in IP lysis buffer, 2 µg primary antibody overnight at 4 °C, Protein A/G beads, IgG as negative control
T1 sequence: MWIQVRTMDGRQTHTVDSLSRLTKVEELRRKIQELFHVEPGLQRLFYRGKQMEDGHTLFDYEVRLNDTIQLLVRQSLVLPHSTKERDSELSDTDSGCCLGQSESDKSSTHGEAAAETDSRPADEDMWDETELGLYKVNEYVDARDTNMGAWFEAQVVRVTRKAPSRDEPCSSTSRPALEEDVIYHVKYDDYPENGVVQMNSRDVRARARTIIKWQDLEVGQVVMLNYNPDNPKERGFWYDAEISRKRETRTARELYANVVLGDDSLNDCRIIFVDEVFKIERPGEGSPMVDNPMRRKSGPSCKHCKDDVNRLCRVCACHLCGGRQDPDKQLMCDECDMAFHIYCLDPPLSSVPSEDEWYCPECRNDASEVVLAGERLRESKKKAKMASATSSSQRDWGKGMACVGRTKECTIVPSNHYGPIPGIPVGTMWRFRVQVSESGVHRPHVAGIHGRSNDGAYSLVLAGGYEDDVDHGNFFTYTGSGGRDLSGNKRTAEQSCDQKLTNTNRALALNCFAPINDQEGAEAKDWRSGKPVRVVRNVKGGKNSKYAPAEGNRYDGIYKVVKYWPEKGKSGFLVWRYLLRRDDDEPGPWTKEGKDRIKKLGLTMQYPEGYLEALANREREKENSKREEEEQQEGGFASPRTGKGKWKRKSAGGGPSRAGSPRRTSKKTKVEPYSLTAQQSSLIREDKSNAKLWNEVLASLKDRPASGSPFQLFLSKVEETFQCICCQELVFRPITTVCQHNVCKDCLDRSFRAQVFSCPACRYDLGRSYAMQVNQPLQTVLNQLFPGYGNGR

[2] = target: T2, Flag-UHRF1 (Ubiquitin-like PHD and RING finger domain-containing protein 1) (UniProt Q96T88); experiment: co-IP; exogenous co-IP in 293T cells co-transfected with tagged UHRF1 and HIF-1α plasmids (whole or truncated), forward and reverse; 1000 µg lysate protein, 2 µg primary antibody overnight at 4 °C, Protein A/G beads, IgG as negative control
T2 sequence: T1 sequence

Row | binding [1] | binding [2] | Substance
1 | binds |  | Hypoxia-inducible factor 1 α (HIF-1α), endogenous in SKOV3 cells (from UniProt Q16665 1-826)
2 |  | binds | Myc-HIF-1α (hypoxia-inducible factor 1 α) (from UniProt Q16665 1-826)
